Data as given in PubChem BioAssay AID504784 (Drosophila RNAi Screening Center, 2011).
Aim: 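Genome-wide knock-down for genes giving too much or too little stored lipid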 (primary screen). System: Drosophila Kc167 embryonic cells. Reagents: long dsRNA against Drosophila genes, about 250 ng dsRNA per well. Duration: 4 days. Challenge: cells fed 400 µM oleic acid bound to BSA. Read-out: 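Cells imaged and segmented; ratio of lipid droplet area to nuclear area, log-transformed, then normalised as a B-score over the screen; higher means more stored lipid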. Scale: droplet/nuclear area B-score: higher = more stored lipid (overstorage).
The screen tested about 17,000 reagents; below is an unselected part of those that have a named target and a result. 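Each column is one replicate's B-score; the combined score over replicates was not deposited, so single values may mislead.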 Reagents against one gene are numbered here. A plus sign joins genes that one reagent is predicted to hit. Reagent sequences are not shown.

Gene	dsRNA no.	droplet/nuclear area B-score, replicate 1	droplet/nuclear area B-score, replicate 2	droplet/nuclear area B-score, replicate 3
CG16964 (GeneID 34605)	1	0.758	-0.169	
Hers + amn	1	0.164	0.0752	
lost (GeneID 40559)	1	-1.82	-0.886	
lost (GeneID 40559)	2	0.521	-2.38	1.57
lost (GeneID 40559)	3	3.46	-1.78	
CG31793 (GeneID 326161)	1	-1.42	1.95	
CAH5 (GeneID 50102)	1	0.321		
RhoGEF2 (GeneID 36915)	1	-0.655		
Brr2 (GeneID 39737)	1	-2.48	-0.936	0.213
Mink (GeneID 42982)	1	2.19	0.111	
RpL34b (GeneID 41120)	1	0.654	1.12	
synr (GeneID 33702)	1	2.46	-0.199	
CG10073 (GeneID 37225)	1	0.0481	0.361	
CG17732 (GeneID 40182)	1	1.04	1.16	
CG12923 (GeneID 36026)	1	-0.647	-2.37	
CG42354 + CG42353	1	4.32	2.93	1.7
Ddx56 (GeneID 33118)	1	-0.00119	2.22	
Sema1a (GeneID 34192)	1	-0.359	-0.391	
CtsL3 (GeneID 40741)	1	-4.56	3	
CG14147 (GeneID 39227)	1	0.971	0.858	
Cul4 (GeneID 35780)	1	0.715	0.0732	
Obp99c (GeneID 43494)	1	-0.11	0.824	
dpr10 (GeneID 39180)	1	1.27	1.75	
dpr10 (GeneID 39180)	2	0.0106	1.22	
dpr10 (GeneID 39180)	3	0.244	-0.625	
Madm (GeneID 40710)	1	-0.00145	0.921	
CoRest (GeneID 32941)	1	-0.0093	1.35	
CoRest (GeneID 32941)	2	-0.459	-0.667	
CoRest (GeneID 32941)	3	7.86	1.71	
galla-2 (GeneID 39221)	1	0.0643	-0.973	-0.632
galla-2 (GeneID 39221)	2	1.82	-0.131	
CG15695 (GeneID 42468)	1	4.32	-0.0641	
Prat2 (GeneID 38753)	1	0.206	-0.18	
CG3511 (GeneID 37926)	1	-2.25	-1.3	
Drp1 (GeneID 33445)	1	1.29	-1.98	
CG12438 (GeneID 34202)	1	0.152	0.703	
CG17666 (GeneID 39452)	1	-0.423	-0.564	
CG42399 (GeneID 33176)	1	1.92	0.446	
CG42399 (GeneID 33176)	2	0.182	0.724	
ACXA (GeneID 53432)	1	0.807	0.0621	
CG16978 (GeneID 50446)	1	-0.742	1.34	
Arf1 (GeneID 40506)	1	7.13	3.5	1.4
Rpi (GeneID 246599)	1	-0.821	-1.01	
Oda (GeneID 36307)	1	-0.488	-0.942	
toc (GeneID 33526)	1	-1.51	-1.78	
toc (GeneID 33526)	2	-0.576	0.138	
toc (GeneID 33526)	3	0.0435	0.874	
Efhc1.2 (GeneID 37284)	1	2.81	2.69	
CG17440 (GeneID 31879)	1	-2.52	0.013	-0.651
Ac78C (GeneID 40333)	1	3.76	3.34	
Ac78C (GeneID 40333)	2	1.59	1.99	
Ac78C (GeneID 40333)	3	1.79	1.23	
RpL18A (GeneID 36985)	1	3.03	4.68	
ND-B14.7 (GeneID 37385)	1	2.36	0.264	
aft (GeneID 37034)	1	0.661	0.0224	
CG13829 (GeneID 42740)	1	0.166	0.432	
Or33c (GeneID 34603)	1	1.02	-0.0621	
CG13065 (GeneID 39786)	1	0.335	2.12	
lilli (GeneID 33496)	1	0.747	0.00891	0.514
pdgy (GeneID 32426)	1	0.945	-0.235	
pdgy (GeneID 32426)	2	3.95	0.121	0.959
CG15029 (retired record) (GeneID 32449)	1	0.0877	-2.83	
CG5111 (GeneID 43085)	1	0.806	1.57	
Nipsnap (GeneID 32573)	1	-0.451	-0.913	0.153
Ir47a (GeneID 36095)	1	-0.571	0.0902	
CG12147 (GeneID 40651)	1	3.47	1.89	
Nazo (GeneID 40976)	1	-0.578	0.966	
CG32198 (GeneID 317909)	1	1.16	0.0264	
AstC (GeneID 34537)	1	-1.3	0.489	
Acyp2 (GeneID 41910)	1	-2.7	0.624	
CG11771 (GeneID 42984)	1	-0.0592	-0.502	
hpRNA:CR18854 (GeneID 10178800)	1	-0.771	-2.38	
CG12521 (GeneID 50289)	1	0.0201	-0.662	
CG7551 (GeneID 39280)	1	-0.133	-0.657	
CG30383 (GeneID 246583)	1	-0.121	0.367	
CG33060 (GeneID 39807)	1	0.481	1.19	
CG18518 (GeneID 34932)	1	-1.36	4.02	
Mur89F (GeneID 42080)	1	-0.0053	-0.0754	
lectin-21Ca (GeneID 53552)	1	2.16	0.275	
CG14708 (GeneID 41383)	1	3.05	-0.0151	
CG31882 (GeneID 319000)	1	-0.95	-1.55	
cib (GeneID 31359)	1	-1.63	-1.25	-0.61
CG15098 (GeneID 37174)	1	0.253	-0.314	
